# According to the supplement of paper PMC10849652:
# Chains of the proteins cited; added tags and fusions are not shown. Lines headed by an entry give the natural chain unless they say otherwise; changes in a name come on top.
# UniProt Q8WU79: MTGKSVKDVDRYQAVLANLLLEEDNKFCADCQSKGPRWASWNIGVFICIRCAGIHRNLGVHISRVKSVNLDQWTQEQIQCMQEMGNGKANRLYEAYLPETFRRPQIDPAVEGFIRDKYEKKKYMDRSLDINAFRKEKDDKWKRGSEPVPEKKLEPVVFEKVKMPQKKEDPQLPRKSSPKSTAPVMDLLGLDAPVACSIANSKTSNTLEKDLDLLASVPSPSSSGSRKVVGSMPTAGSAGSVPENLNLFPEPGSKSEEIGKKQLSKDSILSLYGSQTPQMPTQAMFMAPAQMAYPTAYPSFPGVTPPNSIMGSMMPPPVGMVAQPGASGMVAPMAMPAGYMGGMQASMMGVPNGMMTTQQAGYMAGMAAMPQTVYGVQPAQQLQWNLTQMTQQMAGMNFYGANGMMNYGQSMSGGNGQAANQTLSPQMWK
# UniProt Q8NBI5: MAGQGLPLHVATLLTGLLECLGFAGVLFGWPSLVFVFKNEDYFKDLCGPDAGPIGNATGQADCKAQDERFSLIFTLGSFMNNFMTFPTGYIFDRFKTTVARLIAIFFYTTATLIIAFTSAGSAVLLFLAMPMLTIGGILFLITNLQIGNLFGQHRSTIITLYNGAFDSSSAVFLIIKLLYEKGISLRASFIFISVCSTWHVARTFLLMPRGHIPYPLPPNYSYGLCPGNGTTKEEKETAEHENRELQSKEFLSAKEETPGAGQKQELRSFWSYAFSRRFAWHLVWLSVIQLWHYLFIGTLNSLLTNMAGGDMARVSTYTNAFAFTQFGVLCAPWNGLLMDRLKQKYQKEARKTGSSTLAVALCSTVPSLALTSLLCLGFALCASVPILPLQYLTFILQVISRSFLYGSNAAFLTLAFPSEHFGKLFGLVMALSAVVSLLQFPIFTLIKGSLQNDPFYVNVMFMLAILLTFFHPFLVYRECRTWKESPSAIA
# UniProt Q14542: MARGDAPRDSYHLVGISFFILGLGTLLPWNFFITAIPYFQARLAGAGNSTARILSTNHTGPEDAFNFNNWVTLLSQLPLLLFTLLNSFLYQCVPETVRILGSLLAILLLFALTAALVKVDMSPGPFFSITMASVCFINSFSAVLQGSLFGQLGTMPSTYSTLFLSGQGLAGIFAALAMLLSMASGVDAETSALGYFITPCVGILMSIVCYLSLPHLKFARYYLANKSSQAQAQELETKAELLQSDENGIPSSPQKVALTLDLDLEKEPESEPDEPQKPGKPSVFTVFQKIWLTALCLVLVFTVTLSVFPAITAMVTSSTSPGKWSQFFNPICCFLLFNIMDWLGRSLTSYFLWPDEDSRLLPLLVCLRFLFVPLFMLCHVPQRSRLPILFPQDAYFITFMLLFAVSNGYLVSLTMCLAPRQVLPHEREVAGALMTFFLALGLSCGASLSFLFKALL
# UniProt Q7Z2H8: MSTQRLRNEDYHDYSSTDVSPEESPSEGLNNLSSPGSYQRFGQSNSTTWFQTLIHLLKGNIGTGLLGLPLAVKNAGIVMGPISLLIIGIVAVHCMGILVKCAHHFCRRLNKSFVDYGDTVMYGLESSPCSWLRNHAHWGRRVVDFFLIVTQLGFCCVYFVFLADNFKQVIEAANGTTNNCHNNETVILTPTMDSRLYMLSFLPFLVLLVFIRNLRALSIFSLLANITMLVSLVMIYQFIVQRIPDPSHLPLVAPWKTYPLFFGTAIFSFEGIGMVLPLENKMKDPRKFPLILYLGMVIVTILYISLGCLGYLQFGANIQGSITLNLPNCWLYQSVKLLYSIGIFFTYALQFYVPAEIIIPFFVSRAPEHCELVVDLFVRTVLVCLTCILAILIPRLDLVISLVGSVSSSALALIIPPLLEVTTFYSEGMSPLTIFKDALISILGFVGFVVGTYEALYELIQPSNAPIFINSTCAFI
# UniProt P48029: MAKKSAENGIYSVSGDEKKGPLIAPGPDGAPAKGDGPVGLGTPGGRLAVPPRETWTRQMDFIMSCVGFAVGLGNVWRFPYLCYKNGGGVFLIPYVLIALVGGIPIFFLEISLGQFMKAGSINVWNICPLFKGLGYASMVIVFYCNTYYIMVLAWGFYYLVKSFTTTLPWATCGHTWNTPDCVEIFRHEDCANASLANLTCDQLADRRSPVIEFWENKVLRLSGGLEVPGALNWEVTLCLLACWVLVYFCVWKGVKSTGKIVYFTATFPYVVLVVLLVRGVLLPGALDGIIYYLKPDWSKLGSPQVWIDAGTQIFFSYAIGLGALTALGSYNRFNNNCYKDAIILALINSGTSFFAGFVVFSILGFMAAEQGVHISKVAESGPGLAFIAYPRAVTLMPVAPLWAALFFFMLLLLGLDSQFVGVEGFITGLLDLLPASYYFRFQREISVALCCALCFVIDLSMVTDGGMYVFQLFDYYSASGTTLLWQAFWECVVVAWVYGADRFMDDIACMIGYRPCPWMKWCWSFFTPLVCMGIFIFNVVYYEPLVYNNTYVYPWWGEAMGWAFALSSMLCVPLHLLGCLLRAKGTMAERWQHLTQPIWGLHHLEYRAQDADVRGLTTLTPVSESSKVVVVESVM
# UniProt O95258: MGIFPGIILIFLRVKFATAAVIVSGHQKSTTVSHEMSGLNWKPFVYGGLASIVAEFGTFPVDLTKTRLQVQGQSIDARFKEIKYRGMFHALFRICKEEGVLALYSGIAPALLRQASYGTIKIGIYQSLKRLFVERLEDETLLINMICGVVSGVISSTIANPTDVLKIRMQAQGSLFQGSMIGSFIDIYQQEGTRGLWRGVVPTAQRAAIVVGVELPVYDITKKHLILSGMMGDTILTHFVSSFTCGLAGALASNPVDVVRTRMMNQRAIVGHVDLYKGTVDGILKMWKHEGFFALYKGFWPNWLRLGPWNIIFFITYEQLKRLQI
# UniProt Q70HW3: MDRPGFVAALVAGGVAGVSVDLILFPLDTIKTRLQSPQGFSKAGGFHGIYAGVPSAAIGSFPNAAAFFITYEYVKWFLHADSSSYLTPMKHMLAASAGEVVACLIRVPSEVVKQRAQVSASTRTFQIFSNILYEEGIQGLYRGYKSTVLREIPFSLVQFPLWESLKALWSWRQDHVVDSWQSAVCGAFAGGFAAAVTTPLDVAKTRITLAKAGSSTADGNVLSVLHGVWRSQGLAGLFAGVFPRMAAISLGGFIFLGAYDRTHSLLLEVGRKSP
# UniProt Q13485: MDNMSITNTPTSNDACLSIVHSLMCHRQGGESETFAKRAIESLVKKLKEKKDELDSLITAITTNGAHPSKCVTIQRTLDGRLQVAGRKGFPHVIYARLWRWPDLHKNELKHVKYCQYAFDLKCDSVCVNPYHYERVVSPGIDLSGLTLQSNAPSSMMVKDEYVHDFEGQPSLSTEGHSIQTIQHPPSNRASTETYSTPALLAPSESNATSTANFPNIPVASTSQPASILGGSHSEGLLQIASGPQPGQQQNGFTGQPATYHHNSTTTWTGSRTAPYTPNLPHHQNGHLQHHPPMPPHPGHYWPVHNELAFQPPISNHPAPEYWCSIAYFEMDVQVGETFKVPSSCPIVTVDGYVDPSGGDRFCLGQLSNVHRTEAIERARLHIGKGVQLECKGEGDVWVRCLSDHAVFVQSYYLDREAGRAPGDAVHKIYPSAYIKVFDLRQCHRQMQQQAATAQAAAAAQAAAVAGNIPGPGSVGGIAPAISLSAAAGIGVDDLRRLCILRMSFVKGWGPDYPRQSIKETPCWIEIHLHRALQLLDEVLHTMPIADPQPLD
# UniProt Q15043: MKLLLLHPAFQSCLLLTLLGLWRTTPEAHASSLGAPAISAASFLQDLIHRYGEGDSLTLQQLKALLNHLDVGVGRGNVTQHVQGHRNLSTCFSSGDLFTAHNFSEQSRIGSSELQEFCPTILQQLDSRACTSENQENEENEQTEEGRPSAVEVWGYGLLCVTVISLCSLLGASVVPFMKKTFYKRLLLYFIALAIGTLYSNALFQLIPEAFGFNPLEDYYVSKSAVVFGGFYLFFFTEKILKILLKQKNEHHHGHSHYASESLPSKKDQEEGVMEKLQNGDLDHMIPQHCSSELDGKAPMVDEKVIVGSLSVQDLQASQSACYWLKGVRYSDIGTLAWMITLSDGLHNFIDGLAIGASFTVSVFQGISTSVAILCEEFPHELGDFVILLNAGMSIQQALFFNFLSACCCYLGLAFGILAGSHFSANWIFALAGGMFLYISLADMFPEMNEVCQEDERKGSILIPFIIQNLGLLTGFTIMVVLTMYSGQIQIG
# UniProt Q8IYB5: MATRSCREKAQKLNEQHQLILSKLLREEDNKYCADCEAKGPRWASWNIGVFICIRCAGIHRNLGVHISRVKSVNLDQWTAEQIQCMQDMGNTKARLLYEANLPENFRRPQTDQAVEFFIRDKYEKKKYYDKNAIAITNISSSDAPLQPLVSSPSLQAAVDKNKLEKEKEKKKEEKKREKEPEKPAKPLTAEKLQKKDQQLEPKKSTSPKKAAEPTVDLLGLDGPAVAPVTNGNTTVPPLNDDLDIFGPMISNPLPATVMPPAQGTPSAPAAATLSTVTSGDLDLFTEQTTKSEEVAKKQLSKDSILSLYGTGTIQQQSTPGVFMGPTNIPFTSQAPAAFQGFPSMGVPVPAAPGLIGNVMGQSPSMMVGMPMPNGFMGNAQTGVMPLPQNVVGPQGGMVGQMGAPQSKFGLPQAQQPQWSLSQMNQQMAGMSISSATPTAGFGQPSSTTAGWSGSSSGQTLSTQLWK
# UniProt Q9H2G2: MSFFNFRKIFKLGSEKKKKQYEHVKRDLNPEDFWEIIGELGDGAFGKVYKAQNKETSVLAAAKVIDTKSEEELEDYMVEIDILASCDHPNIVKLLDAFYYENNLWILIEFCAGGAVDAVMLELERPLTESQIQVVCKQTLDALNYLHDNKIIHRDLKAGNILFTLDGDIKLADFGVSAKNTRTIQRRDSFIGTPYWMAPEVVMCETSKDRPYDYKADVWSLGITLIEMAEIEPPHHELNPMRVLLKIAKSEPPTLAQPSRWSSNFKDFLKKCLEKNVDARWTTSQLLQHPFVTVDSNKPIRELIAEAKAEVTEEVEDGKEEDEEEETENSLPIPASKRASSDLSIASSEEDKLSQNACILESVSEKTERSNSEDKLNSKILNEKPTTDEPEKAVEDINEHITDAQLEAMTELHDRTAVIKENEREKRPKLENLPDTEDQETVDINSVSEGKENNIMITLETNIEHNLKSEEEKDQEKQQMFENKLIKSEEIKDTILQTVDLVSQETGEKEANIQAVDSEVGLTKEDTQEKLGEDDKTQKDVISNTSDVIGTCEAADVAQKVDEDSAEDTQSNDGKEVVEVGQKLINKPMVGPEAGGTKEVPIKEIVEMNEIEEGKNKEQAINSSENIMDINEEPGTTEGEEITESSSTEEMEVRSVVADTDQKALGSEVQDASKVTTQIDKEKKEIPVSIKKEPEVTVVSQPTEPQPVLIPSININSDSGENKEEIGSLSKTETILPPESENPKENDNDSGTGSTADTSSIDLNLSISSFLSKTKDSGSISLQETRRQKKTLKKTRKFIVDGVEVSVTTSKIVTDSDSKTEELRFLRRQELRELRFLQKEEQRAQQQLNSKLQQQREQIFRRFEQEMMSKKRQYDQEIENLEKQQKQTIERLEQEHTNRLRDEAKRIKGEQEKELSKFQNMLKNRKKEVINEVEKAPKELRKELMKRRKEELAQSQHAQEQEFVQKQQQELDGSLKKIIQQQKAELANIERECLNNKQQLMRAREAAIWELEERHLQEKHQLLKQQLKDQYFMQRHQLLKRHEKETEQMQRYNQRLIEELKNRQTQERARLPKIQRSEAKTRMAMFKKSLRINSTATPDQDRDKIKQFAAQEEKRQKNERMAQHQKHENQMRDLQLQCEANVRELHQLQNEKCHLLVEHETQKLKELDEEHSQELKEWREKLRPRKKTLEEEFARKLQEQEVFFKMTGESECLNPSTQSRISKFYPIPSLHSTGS
# UniProt O43826: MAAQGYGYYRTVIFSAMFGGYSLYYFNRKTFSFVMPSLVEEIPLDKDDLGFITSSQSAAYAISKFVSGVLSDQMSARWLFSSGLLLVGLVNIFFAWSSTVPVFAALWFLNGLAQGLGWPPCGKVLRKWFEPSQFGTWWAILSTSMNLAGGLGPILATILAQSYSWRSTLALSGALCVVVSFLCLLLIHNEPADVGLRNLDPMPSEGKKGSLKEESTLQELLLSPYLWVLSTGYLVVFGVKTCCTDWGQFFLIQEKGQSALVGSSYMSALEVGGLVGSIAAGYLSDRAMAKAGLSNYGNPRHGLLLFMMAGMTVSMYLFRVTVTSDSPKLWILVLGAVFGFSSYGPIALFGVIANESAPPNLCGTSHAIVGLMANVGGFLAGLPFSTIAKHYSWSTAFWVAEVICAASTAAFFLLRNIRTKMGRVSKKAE
# UniProt Q9H936: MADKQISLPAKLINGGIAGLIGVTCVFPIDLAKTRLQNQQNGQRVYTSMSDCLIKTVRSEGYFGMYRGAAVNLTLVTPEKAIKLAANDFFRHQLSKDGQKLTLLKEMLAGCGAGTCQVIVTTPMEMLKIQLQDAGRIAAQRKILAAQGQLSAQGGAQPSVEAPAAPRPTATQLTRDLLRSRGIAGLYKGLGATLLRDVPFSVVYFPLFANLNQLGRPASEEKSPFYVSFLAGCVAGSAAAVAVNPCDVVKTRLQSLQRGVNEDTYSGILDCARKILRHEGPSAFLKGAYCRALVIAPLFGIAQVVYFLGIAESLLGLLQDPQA
# The list shows a part of the results.
# Key:
# Assay in all cases: log2 fold change, soluble protein after heating vs DMSO (PISA); higher = thermal stabilisation; K562 lysate, 10 uM; active = over 0.2 and 3.5 SD of the protein, either way, in both replicates (recomputed)
# ibrutinib = compound: C=CC(=O)N1CCC[C@@H](n2nc(-c3ccc(Oc4ccccc4)cc3)c3c(N)ncnc32)C1 [ibrutinib]
# Outline: (§1)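 The values are log-two fold changes in thermal stability compared with solvent controls and come from duplicates. They were obtained by TMTpro 16plex LC-MS/MS, with channel sums equalised, on the supernatant after 21,000xg for 90 min. That supernatant came from crude K562 extract at 1 mg/mL protein treated with 10 μM compound for 30 min, heated for 3 min across 48°C-58°C, pooled and brought to 0.5% NP-40 at 4°C.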
# [1] = compound: CC(=O)c1cnc2ccc(-c3cc(Cl)c(O)c(Cl)c3)nc2c1N[C@H]1CC[C@H](CN(C)C)CC1
# Outline: as §1
# ralimetinib = compound: CC(C)(C)Cn1c(N)nc2ccc(-c3[nH]c(C(C)(C)C)nc3-c3ccc(F)cc3)nc21 [ralimetinib]
# Outline: as §1
# [2] = compound: CC(C)(O)CC(=O)NCCn1ccc2ncnc(Nc3ccc(Oc4cccc(C(F)(F)F)c4)c(Cl)c3)c21
# Outline: as §1
# [3] = compound: CC(C)C1=C2N=C(C=C(N2N=C1)NCC3=CC=CC=C3)NCCCCCCN
# Outline: as §1
# [4] = compound: CC1=C(C(CC(=O)N1)C2=CC=C(C=C2)C(F)(F)F)C(=O)NC3=C(C=C4C(=C3)C=NN4)F
# Outline: as §1
# [5] = compound: CC1=C(C2=C(C=C1)C(=O)C3=CC=CC=C3N2CCCN)C
# Outline: as §1
# [6] = compound: CC1=C(C=C(C=C1)NC(=O)C2=CC(=CC=C2)C(C)(C)C#N)NC3=CC4=C(C=C3)N=CN(C4=O)C
# Outline: as §1
# [7] = compound: CC1=C(C=C(C=C1)NC(=O)C2=CC(=CC=C2)N(C)C)NC(=O)C3=CC=C(C=C3)O
# Outline: as §1
# [8] = compound: CC1=CC=C(C=C1)SC2=C3C=C(SC3=CN=C2)C(=O)N
# Outline: as §1
# vemurafenib = compound: CCCS(=O)(=O)Nc1ccc(F)c(C(=O)c2c[nH]c3ncc(-c4ccc(Cl)cc4)cc23)c1F [vemurafenib]
# Outline: as §1
# [9] = compound: CCCS(=O)(=O)Nc1ccc(F)c(C(=O)c2c[nH]c3ncc(Cl)cc23)c1F
# Outline: as §1
# barasertib = compound: CCN(CCCOc1ccc2c(Nc3cc(CC(=O)Nc4cccc(F)c4)[nH]n3)ncnc2c1)CCOP(=O)(O)O [barasertib]
# Outline: as §1
# [10] = compound: CC[C@@H]1C(=O)N(C)c2cnc(Nc3ccc(C(=O)NC4CCN(C)CC4)cc3OC)nc2N1C1CCCC1
# Outline: as §1
# volasertib = compound: CC[C@@H]1C(=O)N(C)c2cnc(Nc3ccc(C(=O)N[C@H]4CC[C@H](N5CCN(CC6CC6)CC5)CC4)cc3OC)nc2N1C(C)C [volasertib]
# Outline: as §1
# [11] = compound: CCn1c(C(=O)N(C2CC2)C2CC2)cc2c3c(ncn3C)c(Nc3cc(C)n(C)n3)nc21
# Outline: as §1
# [12] = compound: CCn1cc(-c2ccnc3[nH]c(-c4cccc(CN(C)C)c4)cc23)c(-c2ccc(NC(=O)N(C)C)cc2)n1
# Outline: as §1
# [13] = compound: CN1CCC(CNc2ccc3ncc(-c4cccc(OC(F)(F)F)c4)n3n2)CC1
# Outline: as §1
# saracatinib = compound: CN1CCN(CCOc2cc(OC3CCOCC3)c3c(Nc4c(Cl)ccc5c4OCO5)ncnc3c2)CC1 [saracatinib]
# Outline: as §1
# sotrastaurin = compound: CN1CCN(c2nc(C3=C(c4c[nH]c5ccccc45)C(=O)NC3=O)c3ccccc3n2)CC1 [sotrastaurin]
# Outline: as §1
Target,log2 fold change (ibrutinib),log2 fold change [1],log2 fold change (ralimetinib),log2 fold change [2],log2 fold change [3],log2 fold change [4],log2 fold change [5],log2 fold change [6],log2 fold change [7],log2 fold change [8],log2 fold change (vemurafenib),log2 fold change [9],log2 fold change (barasertib),log2 fold change [10],log2 fold change (volasertib),log2 fold change [11],log2 fold change [12],log2 fold change [13],log2 fold change (saracatinib),log2 fold change (sotrastaurin)
SMAP2 (UniProt Q8WU79),inactive: -0.008,inactive: -0.008,inactive: -0.015,inactive: -0.01,inactive: 0.024,inactive: 0.034,inactive: 0.019,active: -0.286,inactive: -0.015,inactive: 0.002,inactive: -0.043,inactive: 0.011,inactive: 0.013,inactive: 0.047,inactive: -0.02,inactive: 0.012,inactive: 0.043,inactive: -0.001,inactive: 0.044,inactive: -0.027
SLC43A3 isoform 2 (UniProt Q8NBI5),inactive: 0.006,inactive: 0.023,inactive: 0.028,inactive: -0.014,inactive: -0.024,inactive: 0.003,inactive: -0.026,inactive: 0,inactive: 0.007,inactive: 0.003,inactive: -0.054,inactive: -0.02,inactive: -0.018,inactive: -0.006,inactive: 0.028,inactive: -0.003,inactive: -0.034,inactive: 0.043,inactive: -0.03,inactive: -0.057
SLC27A4 (UniProt Q6P1M0),inactive: -0.004,inactive: 0.029,inactive: 0.009,inactive: -0.027,inactive: 0.049,inactive: 0.077,inactive: -0.042,inactive: -0.051,inactive: 0.028,inactive: 0.003,inactive: -0.042,inactive: 0.127,inactive: -0.015,inactive: -0.028,inactive: -0.106,inactive: 0,inactive: -0.066,inactive: -0.008,inactive: -0.023,inactive: 0.083
SLC29A2 (UniProt Q14542),inactive: 0.035,inactive: 0.045,inactive: 0.082,inactive: -0.036,inactive: 0.043,inactive: -0.001,inactive: -0.011,inactive: 0.041,inactive: 0.072,inactive: 0.006,inactive: 0.003,inactive: 0.012,inactive: 0.029,inactive: 0.049,inactive: -0.041,inactive: -0.079,active: -0.729,inactive: 0.206,inactive: -0.004,inactive: 0.013
SLC36A1 (UniProt Q7Z2H8),inactive: -0.002,inactive: -0.007,inactive: 0.009,inactive: -0.003,inactive: 0.113,inactive: -0.031,inactive: -0.005,inactive: -0.086,inactive: -0.009,inactive: -0.027,inactive: 0.082,inactive: 0.038,inactive: 0.028,inactive: -0.062,inactive: -0.072,inactive: -0.037,inactive: -0.021,inactive: 0.129,inactive: -0.037,inactive: 0.034
SLC6A8 (UniProt P48029),inactive: 0.05,inactive: 0.022,inactive: 0,inactive: -0.004,inactive: -0.018,inactive: -0.037,inactive: -0.007,inactive: -0.032,inactive: 0.239,inactive: -0.03,inactive: 0.037,inactive: 0.04,inactive: -0.008,inactive: 0.026,inactive: 0.045,inactive: -0.065,inactive: -0.188,inactive: 0.088,inactive: -0.003,inactive: -0.078
SLC25A14 isoform 3 (UniProt O95258),inactive: -0.064,inactive: 0.016,inactive: 0.017,inactive: -0.054,inactive: 0.019,inactive: -0.067,inactive: -0.06,inactive: 0.032,inactive: -0.053,inactive: 0,inactive: 0.007,inactive: 0.06,inactive: 0.071,inactive: -0.063,inactive: 0.057,inactive: -0.032,inactive: -0.162,inactive: 0.101,inactive: -0.026,inactive: 0.019
SLC25A26 (UniProt Q70HW3),inactive: 0.084,inactive: 0.084,inactive: -0.107,inactive: -0.038,inactive: -0.013,inactive: -0.041,inactive: 0.153,inactive: 0.036,inactive: -0.022,inactive: -0.153,inactive: 0.081,inactive: -0.084,inactive: 0.067,inactive: 0.092,inactive: 0.004,inactive: -0.057,inactive: -0.135,inactive: 0.077,inactive: 0.026,inactive: 0.144
SMAD4 (UniProt Q13485),inactive: 0.028,inactive: 0.002,inactive: 0.017,inactive: -0.037,inactive: -0.007,inactive: -0.031,inactive: 0.019,inactive: 0,inactive: -0.022,inactive: -0.068,inactive: 0.019,inactive: 0.009,inactive: -0.033,inactive: 0.017,inactive: -0.003,inactive: -0.001,inactive: -0.049,inactive: 0.035,inactive: 0.039,inactive: -0.026
SLC39A14 (UniProt Q15043),inactive: 0.105,inactive: -0.009,inactive: -0.011,inactive: -0.042,inactive: 0,inactive: 0.005,inactive: -0.006,inactive: 0.004,inactive: -0.004,inactive: -0.039,inactive: 0.022,inactive: -0.012,inactive: 0.101,inactive: 0.056,inactive: 0.014,inactive: -0.006,inactive: 0.052,inactive: -0.007,inactive: 0.027,inactive: 0.053
SMAP1 isoform 2 (UniProt Q8IYB5),inactive: 0.003,inactive: 0.026,inactive: -0.026,inactive: -0.002,inactive: 0.002,inactive: 0.022,inactive: 0.008,inactive: 0.029,inactive: -0.01,inactive: -0.018,inactive: -0.011,inactive: 0.083,inactive: -0.019,inactive: 0.171,inactive: 0.07,inactive: -0.011,inactive: 0.043,inactive: -0.001,inactive: 0.029,inactive: -0.078
SLK isoform 2 (UniProt Q9H2G2),inactive: -0.06,inactive: 0.109,inactive: -0.01,inactive: -0.082,inactive: -0.016,inactive: -0.033,inactive: -0.007,inactive: -0.088,inactive: 0.021,inactive: 0.041,inactive: 0.011,inactive: -0.003,inactive: -0.024,inactive: 0.072,inactive: 0.039,inactive: -0.004,inactive: -0.094,inactive: 0.091,inactive: 0.142,inactive: 0.051
SLC6A8 isoform 2 (UniProt P48029),inactive: -0.044,inactive: -0.034,inactive: 0.194,inactive: -0.127,inactive: -0.053,inactive: 0.126,inactive: -0.063,inactive: -0.012,inactive: 0.074,inactive: 0.038,inactive: 0.018,inactive: -0.01,inactive: 0.073,inactive: 0.163,inactive: 0.027,inactive: -0.128,inactive: 0.09,inactive: -0.044,inactive: 0.116,inactive: -0.082
SLC37A4 isoform 2 (UniProt O43826),inactive: 0.022,inactive: -0.01,inactive: 0.101,inactive: 0.02,inactive: 0.081,inactive: -0.014,inactive: -0.054,inactive: 0.051,inactive: -0.061,inactive: -0.004,inactive: 0.034,inactive: 0.035,inactive: 0.039,inactive: 0.001,inactive: 0.036,inactive: -0.02,inactive: -0.224,inactive: 0.099,inactive: 0.015,inactive: -0.019
SLC9A3R1 (UniProt O14745),inactive: -0.008,inactive: -0.006,inactive: 0.009,inactive: -0.024,inactive: -0.017,inactive: -0.018,inactive: 0.023,inactive: -0.005,inactive: -0.016,inactive: -0.007,inactive: 0.016,inactive: 0.005,inactive: -0.007,inactive: 0.026,inactive: 0.029,inactive: -0.006,inactive: -0.016,inactive: 0.063,inactive: 0.022,inactive: -0.005
SLC25A22 (UniProt Q9H936),inactive: -0.01,inactive: -0.004,inactive: 0,inactive: -0.014,inactive: 0.013,inactive: -0.013,inactive: 0.014,inactive: 0.035,inactive: -0.008,inactive: 0.037,inactive: -0.018,inactive: 0.025,inactive: -0.02,inactive: 0.012,inactive: 0.044,inactive: 0.006,inactive: -0.01,inactive: 0.007,inactive: 0.012,inactive: -0.016

# Laid out differently: entries from further up.
Target	log2 fold change (ibrutinib)	log2 fold change [1]	log2 fold change (ralimetinib)	log2 fold change [2]	log2 fold change [3]	log2 fold change [4]	log2 fold change [5]	log2 fold change [6]	log2 fold change [7]	log2 fold change [8]	log2 fold change (vemurafenib)	log2 fold change [9]	log2 fold change (barasertib)	log2 fold change [10]	log2 fold change (volasertib)	log2 fold change [11]	log2 fold change [12]	log2 fold change [13]	log2 fold change (saracatinib)	log2 fold change (sotrastaurin)
SLC39A14 (UniProt Q15043)	inactive: 0.105	inactive: -0.009	inactive: -0.011	inactive: -0.042	inactive: 0	inactive: 0.005	inactive: -0.006	inactive: 0.004	inactive: -0.004	inactive: -0.039	inactive: 0.022	inactive: -0.012	inactive: 0.101	inactive: 0.056	inactive: 0.014	inactive: -0.006	inactive: 0.052	inactive: -0.007	inactive: 0.027	inactive: 0.053
SLK isoform 2 (UniProt Q9H2G2)	inactive: -0.06	inactive: 0.109	inactive: -0.01	inactive: -0.082	inactive: -0.016	inactive: -0.033	inactive: -0.007	inactive: -0.088	inactive: 0.021	inactive: 0.041	inactive: 0.011	inactive: -0.003	inactive: -0.024	inactive: 0.072	inactive: 0.039	inactive: -0.004	inactive: -0.094	inactive: 0.091	inactive: 0.142	inactive: 0.051
